Data published in publication PMC10682394, “A papain-like cysteine protease-released small signal peptide confers wheat resistance to wheat yellow mosaic virus” (Nature Communications, 2023).
No constants are given. Whether binding was seen depends on the method and setting. Where a sequence is shown, tags or fusion partners need not be part of it.

Biological target: TaRD21A^S without signal peptide (TaRD21A^S-ΔSP), GAL4 DNA-binding domain fusion (wheat (Triticum aestivum))
Assay: two-hybrid; AH109 yeast; TaRD21A^S-ΔSP in the GAL4 DNA-binding domain (pGBKT7), WYMV proteins in the GAL4 activation domain (pGADT7); selective medium SD/-Trp-Leu-His-Ade/X-α-GAL, dilutions 10^0 to 10^-4

B1: WYMV P3, GAL4 activation domain fusion (protein, UniProt Q9YJW3 1-328)
chain: MEQTLAQAVSRRNKTDTPMAEERKHFSPMNFSANFVAPELFYSANVRKIKNIFKERSTTRFLDAISSDFELVAFLTLSPAHLMQLETVLRQEMRSCAVPIVTSDASFETVAVIKTALDGMRFHFGYTTLEKGWISMMRHAESCLQESSSSAVNDLQTPIKRVGSLLLSGKNRVEGCELSVLNLTARRFRIEYGLNGTYFGEHVAMLRDLKRYIYGTVPKEFLWAKTKKHLPFTIPAWITRTPIDCFLFCLRVIPILHRFGVAMSLIYFSCVAALNFPAFMGFLFKRQFAKYLAHSFAKHSIYFMFLTIVAILWSFRTFTSQKPKIVLQ
B1 was tested, and the binding was “no binding”.
